Laboratory results published in article PMC9389662.
Results are given in words; binding and its absence hold for the method and conditions named. In cells and extracts the contact can be indirect. Some entries that bind do so weakly or less than the wild type.

By UniProt entry, the sequences of proteins in these tests, tags left out.
UniProt P46937: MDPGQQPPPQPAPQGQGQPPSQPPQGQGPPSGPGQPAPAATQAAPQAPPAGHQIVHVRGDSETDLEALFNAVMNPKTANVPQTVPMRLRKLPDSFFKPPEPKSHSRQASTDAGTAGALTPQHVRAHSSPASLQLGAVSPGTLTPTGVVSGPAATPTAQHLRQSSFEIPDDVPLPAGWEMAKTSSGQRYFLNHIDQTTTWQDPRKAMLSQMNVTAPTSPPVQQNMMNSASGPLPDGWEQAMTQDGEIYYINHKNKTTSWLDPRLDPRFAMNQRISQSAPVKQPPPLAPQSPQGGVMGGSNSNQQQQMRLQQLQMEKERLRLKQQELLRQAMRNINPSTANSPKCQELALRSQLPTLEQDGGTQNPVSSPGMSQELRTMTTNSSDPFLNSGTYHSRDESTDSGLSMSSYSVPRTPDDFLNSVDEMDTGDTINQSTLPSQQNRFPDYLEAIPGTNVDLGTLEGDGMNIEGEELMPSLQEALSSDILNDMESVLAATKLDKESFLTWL
UniProt Q92598: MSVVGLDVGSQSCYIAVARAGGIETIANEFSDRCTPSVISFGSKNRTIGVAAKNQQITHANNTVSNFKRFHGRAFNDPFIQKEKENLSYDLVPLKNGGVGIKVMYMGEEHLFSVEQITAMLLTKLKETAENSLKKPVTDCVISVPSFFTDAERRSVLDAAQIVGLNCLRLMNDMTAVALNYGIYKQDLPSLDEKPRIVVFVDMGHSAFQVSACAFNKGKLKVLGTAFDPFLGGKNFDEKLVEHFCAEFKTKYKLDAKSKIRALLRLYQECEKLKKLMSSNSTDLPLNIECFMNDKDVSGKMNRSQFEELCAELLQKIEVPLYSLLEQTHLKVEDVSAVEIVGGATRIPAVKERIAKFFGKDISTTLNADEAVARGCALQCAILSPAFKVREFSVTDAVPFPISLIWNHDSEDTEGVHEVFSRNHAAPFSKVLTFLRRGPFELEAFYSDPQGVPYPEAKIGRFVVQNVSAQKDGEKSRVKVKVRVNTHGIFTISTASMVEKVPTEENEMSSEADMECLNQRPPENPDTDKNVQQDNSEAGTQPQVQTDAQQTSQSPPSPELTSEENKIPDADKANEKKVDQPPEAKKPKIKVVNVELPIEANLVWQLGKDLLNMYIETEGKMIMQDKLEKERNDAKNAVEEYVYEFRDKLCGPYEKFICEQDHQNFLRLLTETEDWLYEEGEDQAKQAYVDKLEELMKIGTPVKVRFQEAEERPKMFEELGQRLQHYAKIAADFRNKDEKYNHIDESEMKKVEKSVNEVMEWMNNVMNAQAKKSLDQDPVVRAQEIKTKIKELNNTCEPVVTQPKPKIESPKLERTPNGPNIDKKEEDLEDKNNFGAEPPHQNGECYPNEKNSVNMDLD

Target: Yes-associated protein (YAP), Myc-tagged (UniProt P46937)
Test: co-IP; HEK293T cells transfected with HSP110-Flag alone or together with YAP-Myc for 48 h; lysates precipitated with anti-Myc, blotted with anti-Flag and anti-Myc

binding: binds
Substance: Heat shock protein-110 (HSP110), Flag-tagged (from UniProt Q92598 1-858)
